Experimental data published in US8633251B2, “Derivatives of aminoalkanols, method of obtaining of aminoalkanols and their use” (Uniwersytet Jagiellonski, priority 2008, dated 2014).

Columns and labels:
Type in all cases: in vivo
[1] = tested on: maximal electroshock seizures; assay: Maximum Electroshock Seizure (MES) test, rats; settings: protection index, TD50 from rotarod (TOX); for PI (MES, rats, p.o.): 0.25 h
Method: In order to define anticonvulsant activity, screening tests were performed, using animal models of seizures. […] The tests were based on administration of a compound to an animal and after certain time inducing state similar to epilepsy attack in human. Each substance (after dissolving in methylcellulose) was normally tested in doses 30, 100, and 300 mg/kg body weight (b.w.) (mice) or in 30 and 50 mg/kg b.w. (rats) in two possible routes of administration: intraperitoneal (i.p.) or oral (p.o.). […] […] (mice) the tests were also performed in doses 10 and 3 mg/kg b.w.
Maximum Electroshock Seizure (MES) test is an electric test, verifying activity towards generalized tonic-clonic seizures (grand mal epilepsy). […] Its procedure consists in administration to an animal a mentioned dose, […] (after anesthetic eye-drops: 0.5% tetracaine hydrochloride in 0.9% NaCl) and turning on electric current (60 Hz, 0.2 s, 50 mA (mice) or 150 mA (rats)). […]

neurotoxicity (rotarod) = assay: Neurotoxicity test (TOX), rotarod, mice; settings: species not given
Method: (§1) In order to define anticonvulsant activity, screening tests were performed, using animal models of seizures. […] Each substance (after dissolving in methylcellulose) was normally tested in doses 30, 100, and 300 mg/kg body weight (b.w.) (mice) or in 30 and 50 mg/kg b.w. (rats) in two possible routes of administration: intraperitoneal (i.p.) or oral (p.o.). Appropriate tests were performed 0.5 and 4 h after administration of the compound. […] (mice) the tests were also performed in doses 10 and 3 mg/kg b.w.
It is performed with use of rotarod test. The animal is placed on a plastic rod (1 inch in diameter), rotating 6 rpm. The rod is placed on a level discouraging the animal to jump off. […] Neurotoxicity is stated if the animal cannot stay on the rod for 1 min. in any of 3 trials. Normally the test is performed in dose 30 mg/kg b.w. in 4 mice (0.5 h) and in 2 mice (4 h), in the dose 100 mg/kg b.w. in 8 mice (0.5 h) and in 4 mice (4 h) and in the dose 300 mg/kg b.w. in 4 mice (0.5 h) and 2 mice (4 h).

[2] = tested on: maximal electroshock seizures; assay: Maximum Electroshock Seizure (MES) test, mice; settings: for TPEMES (time to peak effect, MES): species not given
Method: as §1
Maximum Electroshock Seizure (MES) test is an electric test, verifying activity towards generalized tonic-clonic seizures (grand mal epilepsy). […] Its procedure consists in administration to an animal a mentioned dose, and after 0.5 or 4 h attaching corneal electrodes (after anesthetic eye-drops: 0.5% tetracaine hydrochloride in 0.9% NaCl) and turning on electric current (60 Hz, 0.2 s, 50 mA (mice) or 150 mA (rats)). […] Normally, in the dose 30 mg/kg b.w. the test is done in 1 mouse after 0.5 or 4 h, in the dose 100 mg/kg b.w.—in 3 mice, and in the dose 300 mg/kg b.w.—in 1 mouse.

[3] = protection index, TD50 from rotarod (TOX), mice, 0.25 h

Row | SMILES | PI (MES, rats, p.o.) [1] | TPETOX (time to peak effect, neurotoxicity) (neurotoxicity (rotarod)) [h] | PI (MES, rats, i.p.) [1] | TPEMES (time to peak effect, MES) [2] [h] | PI (MES, mice, i.p.) ([2]; protection index printed beside the female mice ED50) | PI (MES, mice, i.p.) [2, 3] | PI (MES, mice, p.o.) ([2]; protection index, mice, p.o.) | PI (MES, mice, i.p.) ([2]; protection index, mice, time not given)
1 | Cc1cccc(C)c1OCCNC(C)CO (stereo not shown) [Compound 11, R,S-2N-[(2,6-dimethylphenoxy)ethyl]amino-1-propanol] | < 10.63 |  |  |  |  |  |  | 
2 | Cc1cccc(C)c1OCCN[C@H](C)CO [Compound 12, R-(−)-2N-[(2,6-dimethylphenoxy)ethyl]amino-1-propanol] | > 17.48 | 0.25 | 6.74 | 0.25 | 1.74 | 5.51 | 2.82 | 
3 | Cc1cccc(C)c1OCCN[C@@H](C)CO [Compound 13, S-(+)-2N-[(2,6-dimethylphenoxy)ethyl]amino-1-propanol] |  |  | 5.51 |  |  | 4.38 |  | 
4 | CCC(CO)NCCOc1c(C)cccc1Cl (stereo not shown) [Compound 26, R,S-2N-[(2-chlor-6-methylphenoxy)ethyl]amino-1-butanol] | > 3.55 | 0.25 | 4.5 | 0.25 |  | 2.56 |  | 
5 | Cc1cccc(Cl)c1OCC(=O)NCC(C)O (stereo not shown) [Compound 68, R,S-1N-[(2-chlor-6-methylphenoxy)acetyl]amino-2-propanol] |  |  |  |  |  |  |  | 1.43
